This passage reports binding results from publication doi:10.1101/2022.09.15.508094.

Protein sequences, listed by entry. Tags and fused reporters are not part of them.
UniProt O93309, whole entry: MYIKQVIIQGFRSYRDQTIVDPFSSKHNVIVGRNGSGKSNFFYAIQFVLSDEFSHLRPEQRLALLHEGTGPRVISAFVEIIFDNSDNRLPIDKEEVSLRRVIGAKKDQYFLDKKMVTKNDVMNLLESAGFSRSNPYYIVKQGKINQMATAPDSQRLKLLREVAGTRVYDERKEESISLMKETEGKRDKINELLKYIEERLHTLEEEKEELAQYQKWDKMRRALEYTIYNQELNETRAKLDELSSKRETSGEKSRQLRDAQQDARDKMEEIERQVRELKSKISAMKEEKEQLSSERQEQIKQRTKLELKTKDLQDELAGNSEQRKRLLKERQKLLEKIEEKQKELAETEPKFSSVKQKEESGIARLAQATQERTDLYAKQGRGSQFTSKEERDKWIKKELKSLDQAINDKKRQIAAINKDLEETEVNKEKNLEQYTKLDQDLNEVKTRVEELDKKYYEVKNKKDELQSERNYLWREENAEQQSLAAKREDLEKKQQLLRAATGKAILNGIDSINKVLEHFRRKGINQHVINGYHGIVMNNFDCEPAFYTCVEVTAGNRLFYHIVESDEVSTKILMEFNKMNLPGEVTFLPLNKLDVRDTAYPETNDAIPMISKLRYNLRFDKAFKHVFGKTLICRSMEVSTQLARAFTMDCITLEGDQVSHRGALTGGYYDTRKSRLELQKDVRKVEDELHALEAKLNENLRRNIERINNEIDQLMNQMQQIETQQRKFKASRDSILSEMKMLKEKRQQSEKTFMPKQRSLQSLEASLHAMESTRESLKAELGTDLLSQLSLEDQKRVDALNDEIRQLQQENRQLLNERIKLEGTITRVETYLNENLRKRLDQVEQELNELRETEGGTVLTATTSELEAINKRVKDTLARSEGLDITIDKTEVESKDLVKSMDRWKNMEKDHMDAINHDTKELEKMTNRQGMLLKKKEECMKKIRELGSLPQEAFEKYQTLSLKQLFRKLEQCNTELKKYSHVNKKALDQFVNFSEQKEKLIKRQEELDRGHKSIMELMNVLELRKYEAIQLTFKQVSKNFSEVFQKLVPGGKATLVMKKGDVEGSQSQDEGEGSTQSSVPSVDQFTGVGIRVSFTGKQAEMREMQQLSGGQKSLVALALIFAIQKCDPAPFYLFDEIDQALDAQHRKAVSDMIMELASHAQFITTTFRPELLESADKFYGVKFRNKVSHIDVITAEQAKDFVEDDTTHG

The assay concerns the target T1, XRAD21-8xHis (Xenopus laevis) (UniProt O93310).
T1 sequence: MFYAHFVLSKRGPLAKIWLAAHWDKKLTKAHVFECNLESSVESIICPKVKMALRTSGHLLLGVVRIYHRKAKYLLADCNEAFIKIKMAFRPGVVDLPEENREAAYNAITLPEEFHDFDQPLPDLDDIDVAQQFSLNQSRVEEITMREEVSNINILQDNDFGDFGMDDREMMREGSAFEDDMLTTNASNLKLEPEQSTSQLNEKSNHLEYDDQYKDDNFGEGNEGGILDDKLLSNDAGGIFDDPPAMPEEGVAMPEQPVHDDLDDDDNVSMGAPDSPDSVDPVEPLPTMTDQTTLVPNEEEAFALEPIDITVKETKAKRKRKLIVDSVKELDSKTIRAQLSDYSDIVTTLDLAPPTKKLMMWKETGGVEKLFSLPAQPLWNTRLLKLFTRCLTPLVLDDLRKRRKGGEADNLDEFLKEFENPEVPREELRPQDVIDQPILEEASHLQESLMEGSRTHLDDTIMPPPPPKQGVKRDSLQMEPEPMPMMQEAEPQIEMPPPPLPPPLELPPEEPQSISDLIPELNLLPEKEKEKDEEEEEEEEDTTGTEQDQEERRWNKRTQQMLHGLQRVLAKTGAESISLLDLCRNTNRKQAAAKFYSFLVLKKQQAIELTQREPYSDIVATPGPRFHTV
The assay is described as follows: co-purification.

Results are given in words; binding and its absence hold for the method and conditions named. Some entries that bind do so weakly or less than the wild type. Where a sequence is shown, tags or fusion partners need not be part of it.

Take “XSMC3-Halo-Flag (from UniProt O93309 1-1209)”: the binding result was “binds”.
